According to patent publication US20250353895A1, “METHOD FOR ANALYZING G-PROTEIN CONJUGATED RECEPTOR” (Kao Corporation, priority 2022, published 2025):

B1: TAAR8: original human trace amine-associated receptor TAAR8 (protein, listed as Homo sapiens)
chain: MTSNFSQPVVQLCYEDVNGSCIETPYSPGSRVILYTAFSFGSLLAVFGNLLVMTSVLHFKQLHSPTNFLIASLACADFLVGVTVMLFSMVRTVESCWYFGAKFCTLHSCCDVAFCYSSVLHLCFICIDRYIVVTDPLVYATKFTVSVSGICISVSWILPLTYSGAVFYTGVNDDGLEELVSALNCVGGCQIIVSQGWVLIDFLLFFIPTLVMIILYSKIFLIAKQQAIKIETTSSKVESSSESYKIRVAKRERKAAKTLGVTVLAFVISWLPYTVDILIDAFMGFLTPAYIYEICCWSAYYNSAMNPLIYALFYPWFRKAIKLILSGDVLKASSSTISLFLE
B2: TAAR6: original human trace amine-associated receptor TAAR6 (protein, listed as Homo sapiens)
chain: MSSNSSLLVAVQLCYANVNGSCVKIPFSPGSRVILYIVFGFGAVLAVFGNLLVMISILHFKQLHSPTNFLVASLACADFLVGVTVMPFSMVRTVESCWYFGRSFCTFHTCCDVAFCYSSLFHLCFISIDRYIAVTDPLVYPTKFTVSVSGICISVSWILPLMYSGAVFYTGVYDDGLEELSDALNCIGGCQTVVNQNWVLTDFLSFFIPTFIMIILYGNIFLVARRQAKKIENTGSKTESSSESYKARVARRERKAAKTLGVTVVAFMISWLPYSIDSLIDAFMGFITPACIYEICCWCAYYNSAMNPLIYALFYPWFRKAIKVIVTGQVLKNSSATMNLFSEHI
B3: TAS2R46: original human bitterness receptor TAS2R46 (protein, listed as Homo sapiens)
chain: MITFLPIIFSILIVVTFVIGNFANGFIALVNSIEWFKRQKISFADQILTALAVSRVGLLWVLVLNWYATELNPAFNSIEVRITAYNVWAVINHFSNWLATSLSIFYLLKIANFSNLIFLHLKRRVKSVVLVILLGPLLFLVCHLFVINMNQIIWTKEYEGNMTWKIKLRSAMYLSNTTVTILANLVPFTLTLISFLLLICSLCKHLKKMQLHGKGSQDPSMKVHIKALQTVTSFLLLCAIYFLSIIMSVWSFESLENKPVFMFCEAIAFSYPSTHPFILIWGNKKLKQTFLSVLWHVRYWVKGEKPSSS
B4: TAAR2: original human trace amine-associated receptor TAAR2 (protein, listed as Homo sapiens)
chain: MAVSSEQHELSHFKRTQTKKEKFNCSEYGNRSCPENERSLGVRVAMYSFMAGSIFITIFGNLAMIISISYFKQLHTPTNFLILSMAITDFLLGFTIMPYSMIRSVENCWYFGLTFCKIYYSFDLMLSITSIFHLCSVAIDRFYAICYPLLYSTKITIPVIKRLLLLCWSVPGAFAFGVVFSEAYADGIEGYDILVACSSSCPVMFNKLWGTTLFMAGFFTPGSMMVGIYGKIFAVSRKHAHAINNLRENQNNQVKKDKKAAKTLGIVIGVFLLCWFPCFFTILLDPFLNFSTPVVLFDALTWFGYFNSTCNPLIYGFFYPWFRRALKYILLGKIFSSCFHNTILCMQKESE
B5: TAAR5: original human trace amine-associated receptor TAAR5 (protein, listed as Homo sapiens)
chain: MRAVFIQGAEEHPAAFCYQVNGSCPRTVHTLGIQLVIYLACAAGMLIIVLGNVFVAFAVSYFKALHTPTNFLLLSLALADMFLGLLVLPLSTIRSVESCWFFGDFLCRLHTYLDTLFCLTSIFHLCFISIDRHCAICDPLLYPSKFTVRVALRYILAGWGVPAAYTSLFLYTDVVETRLSQWLEEMPCVGSCQLLLNKFWGWLNFPLFFVPCLIMISLYVKIFVVATRQAQQITTLSKSLAGAAKHERKAAKTLGIAVGIYLLCWLPFTIDTMVDSLLHFITPPLVFDIFIWFAYFNSACNPIIYVFSYQWFRKALKLTLSQKVFSPQTRTVDLYQE
B6: TAAR9: original human trace amine-associated receptor TAAR9 (protein, listed as Homo sapiens)
chain: MVNNFSQAEAVELCYKNVNESCIKTPYSPGPRSILYAVLGFGAVLAAFGNLLVMIAILHFKQLHTPTNFLIASLACADFLVGVTVMPFSTVRSVESCWYFGDSYCKFHTCFDTSFCFASLFHLCCISVDRYIAVTDPLTYPTKFTVSVSGICIVLSWFFSVTYSFSIFYTGANEEGIEELVVALTCVGGCQAPLNQNWVLLCFLLFFIPNVAMVFIYSKIFLVAKHQARKIESTASQAQSSSESYKERVAKRERKAAKTLGIAMAAFLVSWLPYLVDAVIDAYMNFITPPYVYEILVWCVYYNSAMNPLIYAFFYQWFGKAIKLIVSGKVLRTDSSTTNLFSEEVETD
B7: TAAR1: original human trace amine-associated receptor TAAR1 (protein, listed as Homo sapiens)
chain: MMPFCHNIINISCVKNNWSNDVRASLYSLMVLIILTTLVGNLIVIVSISHFKQLHTPTNWLIHSMATVDFLLGCLVMPYSMVRSAEHCWYFGEVFCKIHTSTDIMLSSASIFHLSFISIDRYYAVCDPLRYKAKMNILVICVMIFISWSVPAVFAFGMIFLELNFKGAEEIYYKHVHCRGGCSVFFSKISGVLTFMTSFYIPGSIMLCVYYRIYLIAKEQARLISDANQKLQIGLEMKNGISQSKERKAVKTLGIVMGVFLICWCPFFICTVMDPFLHYIIPPTLNDVLIWFGYLNSTFNPMVYAFFYPWFRKALKMMLFGKIFQKDSSRCKLFLELSS

Test system: HEK293 cells
Assay: Measurement of receptor protein level on cell membrane (flow cytometry), receptor gene co-transfected with RTP1S
Format: cell-based, human
Settings: for change in membrane expression level by the consensus design method: consensus receptor compared with original receptor, HEK293 cells, average values of three experiments; for Original Membrane expression level (%): original receptor on HEK293 cells, PE signal normalised, NC (no receptor) 0%, PC (FLAG-M2 acetylcholine receptor) 100%, average of three experiments

Molecule | change in membrane expression level by the consensus design method | Original Membrane expression level (%)
GPR31: original human GPR31 [reference compound] | increase | 55.21
GPR65: original human GPR65 [reference compound] | increase | 39.00
GPR82: original human GPR82 [reference compound] | increase | 99.43
GPR88: original human GPR88 [reference compound] | increase | 7.25
MrgprE: original human Mas-related G protein-coupled receptor MrgprE [reference compound] | increase | 18.59
MrgprF: original human Mas-related G protein-coupled receptor MrgprF [reference compound] | increase | 95.21
B1 | increase | 0.06
B2 | increase | 0.10
B3 | increase | 2.83
B4 | increase | 0.13
B5 | increase | 0.05
B6 | increase | 0.25
B7 | increase | 54.87
